Some of the results follow. These are further read-outs of the screen, such as a control signal, another cell line or another target. No call is given for them. Compounds called inactive in the main read-out are mostly missing here. Words in brackets tell the shape of the fitted curve; partial curves, single points and poor fits give uncertain potencies.
Assay: qHTS Assay to Find Inhibitors of Chronic Active B-Cell Receptor Signaling
Details: ABC-DLBCL IkBa-CBG/CBR reporter, luminescence ratio (green luciferase fused to IkBa over red control in TMD8 lymphoma cells), 4 h
Summary of the method: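 Cell line TMD8 (human ABC DLBCL), stably expressing tet-inducible CBG68-IkBa fusion and CBR; IMDM/0.5% FBS; cpd up to 46 uM; dox induction, 4 h, 37C/5% CO2; dual luminescence; green/red ratio; MG132 control.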

[1] = measured here: CBR red luminescence, cell number
[2] = measured here: IkBa-CBG green luminescence

Row | SMILES | AC50 [1] | AC50 [2]
1 | O/N=C/c1ccccc1OCc1ccc(Cl)cc1 | 31.6 µM [falling, single point] | –
2 | Cc1ccc(C(=O)/C=C/c2ccccc2[N+](=O)[O-])cc1 | 17.8 µM [falling, single point] | –
3 | O=C(CC1N=C2c3ccccc3N=C(SCc3cccc(Cl)c3)N2C1=O)NCc1ccc2c(c1)OCO2 (centres undefined) | 12.6 µM [falling, partial curve, poor fit] | –
4 | O=C(c1cc2nc(-c3ccco3)cc(C(F)(F)F)n2n1)N1CCN(c2ccccc2)CC1 | 25.9 µM [rising, single point] | –
5 | COc1cc(Nc2nc(SCC(=O)c3ccc(Br)cc3)nc3ccccc23)cc(OC)c1 | 5.62 µM [falling, full curve, poor fit] | –
6 | CN(CCOc1ccc(F)cc1)Cc1ccccc1 | 22.4 µM [rising, single point] | –
7 | N#C/C(=C\C1CC=CCC1)c1nc2ccccc2[nH]1 (centres undefined) | 35.5 µM [falling, single point] | –
8 | CCC(C)NCCOc1ccc(C)cc1[N+](=O)[O-] (centres undefined) | 0.794 µM [rising, partial curve, poor fit] | –
9 | CCOC(=O)c1sc(=S)n(-c2ccc(OC)cc2)c1C | 3.98 µM [rising, full curve, poor fit] | –
10 | O=C(NN=Cc1cccc([N+](=O)[O-])c1)c1cc(-c2cccnc2)nc2ccccc12 | 0.58 µM [rising, full curve, poor fit] | –
11 | Cc1ccc(C)c(OCCNc2ccc([N+](=O)[O-])cn2)c1 | 1 µM [rising, partial curve, poor fit] | –
12 | COc1ccc(CCC(=O)Nc2ccc(-c3noc(-c4ccc(OC)c(OC)c4)n3)cc2)cc1 | 1.84 µM [rising, partial curve, poor fit] | –
13 | CCOC(=O)c1ccc(N2C(=O)C=CC2=O)cc1 | 20.6 µM [falling, partial curve, poor fit] | –
14 | O=C(Nc1ccc(Cl)c(Cl)c1)N1CCSC1c1ccco1 (centres undefined) | 35.5 µM [falling, single point] | –
15 | N#Cc1cc2ccccc2nc1SCc1ccccn1 | 35.5 µM [falling, single point] | –
16 | O=C(N/N=C/c1cn(CC(=O)N2CCOCC2)c2ccccc12)c1cccnc1 | 22.4 µM [falling, single point] | –
17 | N#C/C(=C(/O)C(Cl)(Cl)Cl)c1nc2ccccc2[nH]1 | 11.2 µM [falling, single point] | –
18 | COc1ccc(O)c(C(=O)CC(=O)c2ccccc2C)c1 | 35.5 µM [falling, single point] | –
19 | Cc1ccc2c(CN3CCN(S(=O)(=O)c4ccccc4C(F)(F)F)CC3)cc(=O)oc2c1C | 0.651 µM [rising, full curve, poor fit] | –
20 | COc1ccc(S(=O)(=O)N2CCOC2CNC(=O)C(=O)NCCCn2ccnc2)cc1OC (centres undefined) | 29.1 µM [rising, single point] | –
21 | Cc1cc(-c2nnc(CCC(=O)N3CCN(Cc4cccc(F)c4)CC3)o2)c(C)o1 | 35.5 µM [rising, partial curve, poor fit] | –

2 entries from above, with tabs.
Row	SMILES	AC50 [1]	AC50 [2]
7	N#C/C(=C\C1CC=CCC1)c1nc2ccccc2[nH]1 (centres undefined)	35.5 µM [falling, single point]	–
14	O=C(Nc1ccc(Cl)c(Cl)c1)N1CCSC1c1ccco1 (centres undefined)	35.5 µM [falling, single point]	–

One compound at a time (already shown):
O=C(Nc1ccc(Cl)c(Cl)c1)N1CCSC1c1ccco1 (centres undefined) reads AC50 [1]: 35.5 µM [falling, single point]
O=C(NN=Cc1cccc([N+](=O)[O-])c1)c1cc(-c2cccnc2)nc2ccccc12 reads AC50 [1]: 0.58 µM [rising, full curve, poor fit]

More compounds

Row | SMILES | AC50 [1] | AC50 [2]
22 | O=C(CC1CCCCC1)NCc1cn2ccsc2n1 | 11.2 µM [rising, partial curve] | –
23 | Cc1c(/C=N\NC(=O)C2COc3ccccc3O2)c2ccccc2n1C (centres undefined) | 3.26 µM [rising, full curve] | 2.91 µM [falling, full curve]
24 | CCC(=O)Nc1ccc(SC#N)cc1C | 20.6 µM [rising, partial curve] | 16.4 µM [falling, partial curve]
25 | CCc1ccc(OCCNC(=O)c2ccco2)cc1 | 7.94 µM [rising, partial curve, poor fit] | –
26 | CCOC(=O)C1CCCN(C(=O)c2ccc(-c3ccc([N+](=O)[O-])cc3)o2)C1 (centres undefined) | 23.1 µM [falling, single point] | –
27 | Cc1nc(N2CCN(C(=O)c3ccco3)CC2)c2c3c(sc2n1)CC(C)CC3 (centres undefined) | 14.1 µM [falling, partial curve] | –
28 | O=C(N/N=C1\CC2CC=CC12)c1ccccc1Cl (centres undefined) | 14.1 µM [falling, partial curve, poor fit] | –
29 | Cc1onc(C(=O)Nc2ccc(OC(F)(F)F)cc2)c1[N+](=O)[O-] | 1.12 µM [rising, full curve, poor fit] | –
30 | CCN(CC)c1ccc(-n2c(O)c(C=C3N=c4ccccc4=N3)sc2=S)cc1 | 2.59 µM [falling, full curve] | –
31 | O=C(/C=C/c1ccccc1)NC(=S)NNC(=O)c1cccnc1 | 14.1 µM [falling, partial curve] | –
32 | CCN(CC)C(=O)CCC(=O)Nc1ccc(C(=O)OC)cc1 | 23.1 µM [falling, partial curve, poor fit] | –
33 | Clc1ccc(SCc2cn3cccnc3n2)cc1 | 0.794 µM [rising, full curve, poor fit] | –
34 | O=C(CCNC(=O)N1CCn2c1nc1ccccc12)NCc1ccccc1Cl | 35.5 µM [falling, single point] | –
35 | O=C1c2ccccc2NC(c2cnc3ccccc3n2)N1O (centres undefined) | 5.62 µM [falling, full curve] | –
36 | CC(c1nc2ccccc2n1Cc1ccccc1)N1CCCCC1 (centres undefined) | 2.51 µM [falling, full curve, poor fit] | –
37 | COc1ccccc1NC(=O)c1ccc(Cl)c(S(=O)(=O)NCc2ccco2)c1 | 16.4 µM [rising, partial curve] | –
38 | COCCn1c(C)cc(C(=O)COC(=O)C2CC(=O)N(CCc3ccc(OC)c(OC)c3)C2)c1C (centres undefined) | 1.46 µM [rising, full curve] | –
39 | O=c1c2ccccc2[nH]c(=S)n1CCCN1CCC(Cc2ccccc2)CC1 | 35.5 µM [falling, single point] | –
40 | O=S(=O)(NCc1ccc(F)cc1)c1ccccc1Br | 0.259 µM [rising, full curve, poor fit] | –
41 | N#CC1=C(N)Oc2n[nH]c(-c3cccnc3)c2C1c1ccc([N+](=O)[O-])o1 (centres undefined) | 15.8 µM [falling, single point] | 17.8 µM [rising, partial curve, poor fit]
42 | O=C(NC1CCCCC1)C(c1ccncc1)N(C(=O)c1ccco1)c1ccc(F)cc1 (centres undefined) | 11.2 µM [falling, partial curve, poor fit] | –

Row | SMILES | AC50 [1] | AC50 [2]
43 | COc1ccc(OC)c(CNC(=O)c2ccc(Sc3ccc(C)cc3)c(N)c2)c1 | 0.794 µM [falling, partial curve, poor fit] | –
44 | CS(=O)(=O)c1ccc(Cl)c(NC(=O)C2CCN(S(=O)(=O)c3cccs3)CC2)c1 | 29.1 µM [falling, partial curve, poor fit] | –
45 | Cc1ccc(NCc2nc3ccccc3n2C)cc1 | 0.116 µM [rising, full curve, poor fit] | –
46 | CC(C)(C)OC(=O)CNC(=O)c1[nH]cnc1C(=O)Nc1ccc(CNC(=O)OC(C)(C)C)cc1 | 3.98 µM [rising, partial curve, poor fit] | –
47 | COc1cccc(C(=O)CSc2nnc(-c3cccs3)o2)c1 | 3.66 µM [falling, partial curve, poor fit] | –
48 | COc1ccc(OC)c(C(=O)COC(=O)CNC(=O)c2ccccc2)c1 | 23.1 µM [rising, partial curve, poor fit] | –
49 | CCN(C(=O)c1ccco1)c1nc(-c2ccc(OC)cc2)cs1 | 2.82 µM [rising, full curve, poor fit] | –
50 | CC(C)c1nc(SCC(=O)NCC2CCCO2)c2c(=O)n(C)c(=O)n(C)c2n1 (centres undefined) | 17.8 µM [rising, partial curve, poor fit] | –
51 | C#CCOCCOCCOCCNc1nc(N2CCN(C(=O)CCCCCCCCCCNC(=O)[C@H](CCCCN)n3cc(C)nn3)CC2)nc(N2CCN(C(=O)CCCCCCCCCCNC(=O)[C@H](CO)n3cc(CCCSC)nn3)CC2)n1 | 3.26 µM [rising, partial curve, poor fit] | –
52 | COC(=O)COc1ccc(S(=O)(=O)NCc2ccco2)cc1 | 6.51 µM [falling, single point] | –
53 | Cc1ccc(C(=O)Nc2cc3c(cc2C)n(C)c(=O)c(=O)n3C)cc1 | 14.1 µM [falling, single point] | –
54 | COc1c(/C=N/NC(=O)c2ccncc2)c(CCN(C)C(C)=O)cc2c1OCO2 | 35.5 µM [falling, single point] | –
55 | Cc1cc(C)n(-c2ccc(C(=O)OCC(=O)Nc3ccc(S(=O)(=O)N4CCOCC4)cc3)cc2)n1 | 14.1 µM [rising, partial curve, poor fit] | –
56 | O=C(CN1N=C(c2ccc(Cl)cc2)CCC1=O)NCCc1ccc(Cl)cc1 | 35.5 µM [falling, single point] | –
57 | C=CCN1C(=O)[C@H]2CCC=C[C@H]2[C@@H]1c1cccc(C)c1 | 29.1 µM [rising, single point] | –
58 | COC(=O)c1c(CSc2ccc(C)c(C)c2)noc1C(=O)NCc1ccc(OC)cc1 | 2 µM [rising, full curve, poor fit] | –
59 | O=C(NCC1CCCO1)C1CCCN1C(=O)Nc1ccc(Cl)cc1 (centres undefined) | 31.6 µM [rising, single point] | –
60 | Cc1c(C(=O)N2CCN(Cc3ccc4c(c3)OCO4)CC2)sc2ncnc(N3CCN(c4ccccc4F)CC3)c12 | 12.6 µM [falling, partial curve] | –
61 | COC(=O)c1ccc(/C=N/OCC(=O)NCCc2ccc(OC)c(OC)c2)cc1 | 15.8 µM [rising, partial curve, poor fit] | –

Source: PubChem BioAssay AID493014 (National Center for Advancing Translational Sciences (NCATS), 2011)
